# About 13,000 (3.2%) of roughly 400,000 compounds were called active. The shares of active, inactive and inconclusive entries below differ from those in the screen. The call rests on the fitted dose curve; in most records, active means well fitted cell-killing curve with a large enough effect; inconclusive means small, poorly fitted or top-dose-only effect, or effect the other way; inactive means flat fitted curve, though single readings scatter. Where the call is inconclusive, the potency comes from a doubtful curve fit.
# Assay: qHTS assay for MDR1-selective chemotherapeutics: Primary screen using the drug-selected MDR subline cells KB-V1; further: nearly all actives have a fitted effect of over 60% in size
# Details: KB-V1 MDR cells viability, CellTiter-Glo, 72 h; series mostly up to 46.1 µM
# Procedure, shortened: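 Cytotoxicity via CellTiter-Glo luminescence after 72 h compound exposure at 37 degrees C. Cells: drug-selected KB-V1 line, DMEM phenol-red free plus 10% FBS. Compounds tested at multiple concentrations; normalized data fitted to concentration-effect curves.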
# Potency means the concentration at half of the fitted maximal effect.
row,Compound,Potency
1,C=CCn1c(Cn2c(-c3cnccn3)nc3ccccc32)nc2ccccc21,"inconclusive: 3.66 µM [cytotoxic, partial curve]"
2,Cc1ccsc1C(=O)N[C@@H](C)c1nnc2ccccn12,"inconclusive: 29.1 µM [rising, single point]"
3,COc1ccc(OC)c(CNCc2c(C(=O)O)n(Cc3ccccc3)c3cc(OC)ccc23)c1,inactive
4,O=C(NCc1cccs1)c1ccccc1F,inactive
5,CCOC(=O)c1ccc(NC(=O)C2CCCN(c3ncnc4onc(C)c34)C2)cc1 (stereo not given),inactive
6,C=CCn1c(SCc2c(C)noc2C)nnc1C1COc2ccccc2O1 (stereo not given),"inconclusive: 8.2 µM [cytotoxic, partial curve]"
7,Cc1ccc(C(C[N+](=O)[O-])n2nc(C)cc2C)cc1 (stereo not given),inactive
8,CCCOc1ccc(/C=C/C(=O)NC2CCCCC2)cc1OC,"inconclusive: 23.1 µM [cytotoxic, partial curve, poor fit]"
9,CC(=O)c1c(C)[nH]c(C(=O)COC(=O)CCNS(=O)(=O)c2ccc(C)c(C)c2)c1C,"inconclusive: 29.1 µM [rising, single point]"
10,Clc1ccc2c(N3CCOCC3)ccnc2c1,"inconclusive: 25.9 µM [cytotoxic, partial curve, poor fit]"
11,COc1c(C)cc(Br)cc1C(=O)Nc1ccc(Cc2ccncc2)cc1,inactive
12,O=C(c1ccc(Cl)c(S(=O)(=O)N2CCCCC2)c1)N1CCN(Cc2ccccc2)CC1,"inconclusive: 5.17 µM [cytotoxic, full curve]"
13,COc1ccc(NC(=O)CSC2=Nc3ccccc3C3=NC(CCC(=O)NCc4ccco4)C(=O)N23)cc1 (stereo not given),inactive
14,CCOc1cc(/C=C(/C#N)c2nc3ccccc3[nH]2)ccc1OCc1ccc(C(=O)O)o1,inactive
15,Cc1ccc(C(=O)OCC(=O)NC2CC2)s1,inactive
16,Cc1ccc2c(cnn2C(=O)CCCC(=O)NCc2cccc(F)c2)c1,inactive
17,CSc1ccc(S(=O)(=O)N2CCC(C(=O)N3CCc4ccccc4C3)CC2)cc1,"inconclusive: 11.6 µM [cytotoxic, partial curve, poor fit]"
18,CC[C@@H]1C(c2ccccc2)=NN(c2ccccc2)[C@H]1C(=O)N1CCOC1=O,inactive
19,Cc1ccc2ncc3c(-c4ccccc4)nn(CC(=O)NC4CCCCC4)c3c2c1,"inconclusive: 23.1 µM [rising, partial curve, poor fit]"
20,CC(C)(C)C1=CC(=O)C(=O)C(C(C)(C)C)=C1,active: 13 µM
21,O=S(=O)(c1ccc(Cl)c(F)c1)N1CCC(c2nc(-c3ccncc3)no2)CC1,active: 20.6 µM
22,O=C(CC1NCCNC1=O)Nc1cccc(F)c1 (stereo not given),inactive
23,CCc1ccc(CN2CCc3nc(Nc4ccc5c(c4)OCCO5)ncc3C2)cc1,"inconclusive: 29.1 µM [cytotoxic, single point]"
24,CCc1ccc(CNc2nc3nc(C)c(Cc4ccccc4)c(=O)n3[nH]2)cc1,inactive

# As a working copy, 5 of the compounds above:
row,Compound,Potency
4,O=C(NCc1cccs1)c1ccccc1F,inactive
5,CCOC(=O)c1ccc(NC(=O)C2CCCN(c3ncnc4onc(C)c34)C2)cc1 (stereo not given),inactive
6,C=CCn1c(SCc2c(C)noc2C)nnc1C1COc2ccccc2O1 (stereo not given),"inconclusive: 8.2 µM [cytotoxic, partial curve]"
7,Cc1ccc(C(C[N+](=O)[O-])n2nc(C)cc2C)cc1 (stereo not given),inactive
8,CCCOc1ccc(/C=C/C(=O)NC2CCCCC2)cc1OC,"inconclusive: 23.1 µM [cytotoxic, partial curve, poor fit]"

# More compounds.

row,Compound,Potency
1,COC(=O)c1ccc(OCC(O)CN(CCO)CC(O)Cn2ccc3ccccc32)cc1 (stereo not given),"inconclusive: 18.4 µM [cytotoxic, single point]"
2,CNC(=O)c1ccccc1S(=O)(=O)c1ccccc1C#N,"inconclusive: 18.4 µM [rising, partial curve, poor fit]"
3,COc1ccc(NC(=O)N2CCN(c3nc(-c4cccc(OC)c4)cs3)CC2)cc1,active: 11.6 µM
4,COc1ccc(NC(=O)CSc2ccc(-c3sc(C)nc3C)nn2)cc1OC,"inconclusive: 8.2 µM [cytotoxic, partial curve]"
5,COc1ccc(CCNc2oc(COc3ccc(Cl)cc3)nc2C#N)cc1OC,"inconclusive: 18.4 µM [cytotoxic, single point]"
6,CC(=O)c1cccc(NC(=O)C2=CC(c3ccco3)=NS(=O)(=O)N2C)c1,"inconclusive: 23.1 µM [rising, single point]"
7,COc1ccc(C2=Nn3c(nnc3-c3ccco3)SC2)cc1,"inconclusive: 29.1 µM [cytotoxic, single point]"
8,COc1cccc(NC(=O)CSc2nncn2N)c1,"inconclusive: 29.1 µM [rising, single point]"
9,O=C(CSc1ncccc1C(=O)O)c1ccccc1F,inactive
10,Cc1ccc(C(=O)Nc2sc3c(c2C(=O)O)CCCCC3)o1,"inconclusive: 18.4 µM [cytotoxic, partial curve, poor fit]"
11,Cc1ccc(NC(=O)CN(C)C(=O)c2cc(-c3ccccc3)nn2-c2ccccc2)cc1,"inconclusive: 11.6 µM [cytotoxic, partial curve, poor fit]"
12,Cc1ccc(S(=O)(=O)N2CCN(C(=O)Cc3ccsc3)CC2)c(C)c1,"inconclusive: 13 µM [cytotoxic, partial curve, poor fit]"
13,O=C(NCc1cccnc1)C1c2ccccc2C(=O)N1C1CCCC1 (stereo not given),"inconclusive: 32.6 µM [rising, partial curve, poor fit]"
14,Cc1ccc(N(C(=O)CNC(=O)c2ccco2)C(C(=O)NC2CCCC2)c2cccnc2)cc1F (stereo not given),inactive
15,Cc1c(-c2nnc(SCC(=O)Nc3ccc(Br)cc3)o2)nnn1-c1ccc(F)cc1,inactive
16,Cc1ccc(C(=O)N/N=C\c2ccccn2)cn1,inactive
17,NC(=O)C1(Nc2ccccc2)CCCC1,"inconclusive: 20.6 µM [cytotoxic, single point]"
18,CCOc1cccc(-n2nnnc2-c2ccc(OC)cc2)c1,"inconclusive: 2.59 µM [cytotoxic, partial curve, poor fit]"
19,C[C@H]1CN([C@@H](C)CO)C(=O)Cc2cc(NS(=O)(=O)c3cn(C)cn3)ccc2O[C@@H]1CN(C)C(=O)Nc1ccc(F)cc1,"inconclusive: 20.6 µM [rising, partial curve]"
20,CN1CCc2nc(NC(=O)COc3ccc(C#N)cc3)sc2C1,inactive
21,Cn1c(SCC(=O)Nc2ccc(Cl)cn2)nnc1C1CC1,"inconclusive: 29.1 µM [rising, single point]"
22,CC1=NN(C(C#N)c2ccccc2C)C(c2ccccc2)C1 (stereo not given),"inconclusive: 29.1 µM [rising, single point]"
23,COC(=O)[C@@]12C[C@@H](CC(=O)N3CCSCC3)C(=O)N(Cc3ccccc3)C1=CCC(C)(C)C2,"inconclusive: 6.51 µM [cytotoxic, partial curve, poor fit]"
24,O=C(NCc1ccccn1)C1CCC(=O)N(Cc2ccc(Cl)cc2)C1 (stereo not given),"inconclusive: 32.6 µM [rising, partial curve, poor fit]"

row,Compound,Potency
1,COCCn1c(SCC(=O)N2CCCc3ccccc32)nc2ccccc2c1=O,"inconclusive: 9.2 µM [cytotoxic, partial curve]"
2,Cc1ccccc1CS(=O)(=O)c1cnc2ccccc2n1,"inconclusive: 29.1 µM [cytotoxic, single point]"
3,COc1ccc(-c2ccc3nnc(SCC(N)=O)n3n2)cc1,inactive
4,Cc1sc(NC(=O)c2ccc(F)cc2)c(CN2CCCCCC2)c1C,"inconclusive: 18.4 µM [cytotoxic, single point]"
5,O=C(NNc1nc(-c2ccccc2)c2cc(Br)ccc2n1)c1ccc(S(=O)(=O)N2CCCCC2)cc1,active: 3.26 µM
6,Cc1cccc(C2=NN(c3ccc(Br)cc3)[C@@H](C(=O)N3CCOC3=O)[C@@H]2c2ccc(F)cc2)c1,inactive
7,COc1ccc(-c2nc(C)c(CCNS(=O)(=O)c3ccc(F)cc3)s2)cc1OC,active: 9.2 µM
8,O=C(N/N=C(\c1ccccc1)c1ccccn1)c1ccccc1Cl,"inconclusive: 1.84 µM [cytotoxic, full curve]"
9,Cc1cccc(N2CCN(C(=O)c3csc4ccccc34)CC2C)c1 (stereo not given),active: 14.6 µM
10,Clc1ccc(Cn2ccc(-c3ccc4c(c3)OCO4)n2)cc1Cl,"inconclusive: 20.6 µM [cytotoxic, single point]"
11,O=C(C[C@H]1C[C@H](C(=O)N2CCOCC2)[C@@]2(CCC3CCCC3)c3[nH]c4cc(-c5ccco5)ccc4c3CCN2C1=O)NCc1ccco1,"inconclusive: 18.4 µM [cytotoxic, single point]"
12,COCCCNCCCCOc1c(Cl)cc(C)cc1Br,"inconclusive: 18.4 µM [cytotoxic, single point]"
13,Cc1cccc(COCC(Cc2ccccc2)N2CCN(C(=O)c3cc(Cl)cc(Cl)c3)CCC2=O)c1 (stereo not given),inactive
14,Cc1nnc(SCc2nnc(-c3ccccc3Br)o2)s1,"inconclusive: 18.4 µM [cytotoxic, partial curve, poor fit]"
15,COc1cc(=O)[nH]c(SCc2c(F)c(F)c(F)c(F)c2F)n1,"inconclusive: 20.6 µM [cytotoxic, single point]"
16,O=C1c2cccnc2C(=O)N1Cc1ccc(S(=O)(=O)NCc2ccco2)s1,"inconclusive: 29.1 µM [rising, single point]"
17,Cc1cc2c3c(c1)C1(SCC(=O)N1c1ccc(F)cc1)C(=O)N3C(C)(C)CC2C (stereo not given),"inconclusive: 13 µM [cytotoxic, partial curve]"
18,CC(C)(C)N1C(=O)[C@H]2[C@@H](c3ccc(Br)cc3)N3C(=O)N(c4ccccc4)C(=O)[C@@]3(C)[C@H]2C1=O,"inconclusive: 6.51 µM [rising, partial curve]"
19,Cc1cc(NCC(=O)Nc2ccc(C)c(S(=O)(=O)N3CCOCC3)c2)ccc1Br,"inconclusive: 25.9 µM [cytotoxic, single point]"
20,O=C1CSC(=Nc2ccc(F)cc2)N1,inactive
21,COc1ccc(NC(=O)CSc2nc3ccccc3c(=O)n2C)cc1,"inconclusive: 5.8 µM [cytotoxic, partial curve]"
22,CC(=O)OC1CC(c2cc(C(C)(C)C)c(O)c(C(C)(C)C)c2)=NO1 (stereo not given),"inconclusive: 23.1 µM [cytotoxic, single point]"

# Source: PubChem BioAssay AID1347076 (National Center for Advancing Translational Sciences (NCATS), 2019)
